Experimental data: paper PMC10206070
These are yes or no findings as the source states them, for the method shown. Binding seen in cells or lysates may run through a third protein. These calls come from enrichment with a bait or labelling near it, and not all partners need be listed. Values belong to the molecule of their own block, whether it stands above or below them.

Target: T1, Adenosine Deaminase Acting on RNA 1 (ADAR1) (human (endogenous in MDA-MB-231)) (UniProt P55265)
T1 sequence: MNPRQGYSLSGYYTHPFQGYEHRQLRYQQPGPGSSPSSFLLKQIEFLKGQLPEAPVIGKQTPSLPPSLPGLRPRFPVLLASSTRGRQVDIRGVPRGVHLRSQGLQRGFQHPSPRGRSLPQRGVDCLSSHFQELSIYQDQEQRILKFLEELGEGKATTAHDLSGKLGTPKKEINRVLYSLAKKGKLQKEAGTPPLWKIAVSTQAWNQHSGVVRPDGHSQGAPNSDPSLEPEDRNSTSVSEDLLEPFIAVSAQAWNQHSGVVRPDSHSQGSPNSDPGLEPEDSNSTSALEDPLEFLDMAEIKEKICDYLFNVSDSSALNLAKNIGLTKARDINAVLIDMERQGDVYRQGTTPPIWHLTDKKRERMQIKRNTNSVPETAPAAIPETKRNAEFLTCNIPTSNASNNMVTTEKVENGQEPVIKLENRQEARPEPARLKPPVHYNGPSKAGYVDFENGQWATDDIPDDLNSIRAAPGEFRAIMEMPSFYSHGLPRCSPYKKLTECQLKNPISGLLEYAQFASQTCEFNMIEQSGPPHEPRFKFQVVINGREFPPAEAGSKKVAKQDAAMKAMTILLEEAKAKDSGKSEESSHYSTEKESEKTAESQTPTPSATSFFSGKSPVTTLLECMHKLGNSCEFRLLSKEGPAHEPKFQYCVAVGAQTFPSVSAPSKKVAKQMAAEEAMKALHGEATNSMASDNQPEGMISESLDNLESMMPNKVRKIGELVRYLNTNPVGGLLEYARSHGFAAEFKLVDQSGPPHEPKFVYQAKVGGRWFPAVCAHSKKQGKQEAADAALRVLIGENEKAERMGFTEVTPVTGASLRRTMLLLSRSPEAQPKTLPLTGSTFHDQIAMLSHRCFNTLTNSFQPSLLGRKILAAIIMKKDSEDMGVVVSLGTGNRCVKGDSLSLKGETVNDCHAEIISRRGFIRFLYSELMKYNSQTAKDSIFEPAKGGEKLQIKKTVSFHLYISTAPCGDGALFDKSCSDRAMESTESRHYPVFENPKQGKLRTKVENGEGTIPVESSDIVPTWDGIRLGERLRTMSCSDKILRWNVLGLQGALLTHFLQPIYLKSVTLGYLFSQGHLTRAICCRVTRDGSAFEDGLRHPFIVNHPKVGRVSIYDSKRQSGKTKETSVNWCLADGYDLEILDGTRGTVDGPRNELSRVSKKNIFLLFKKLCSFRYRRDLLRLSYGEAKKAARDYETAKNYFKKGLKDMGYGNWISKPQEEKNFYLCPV
Test: affinity purification with mass spectrometry; endogenous ADAR1 immunoprecipitated from MDA-MB-231 lysate with a rabbit polyclonal anti-ADAR1 antibody on protein A/G beads, normal rabbit IgG as control; two biological and 3 technical replicates; hits kept with p < 0.05 and fold change > 2 over IgG

binding: binds
Molecule: Complement C4-A (human (endogenous in MDA-MB-231))

binding: binds
Molecule: Nebulin (from UniProt P20929 1-8525)

binding: binds
B1: Kynureninase (KYNU) (enzyme, UniProt Q16719 1-465)
chain: MEPSSLELPADTVQRIAAELKCHPTDERVALHLDEEDKLRHFRECFYIPKIQDLPPVDLSLVNKDENAIYFLGNSLGLQPKMVKTYLEEELDKWAKIAAYGHEVGKRPWITGDESIVGLMKDIVGANEKEIALMNALTVNLHLLMLSFFKPTPKRYKILLEAKAFPSDHYAIESQLQLHGLNIEESMRMIKPREGEETLRIEDILEVIEKEGDSIAVILFSGVHFYTGQHFNIPAITKAGQAKGCYVGFDLAHAVGNVELYLHDWGVDFACWCSYKYLNAGAGGIAGAFIHEKHAHTIKPALVGWFGHELSTRFKMDNKLQLIPGVCGFRISNPPILLVCSLHASLEIFKQATMKALRKKSVLLTGYLEYLIKHNYGKDKAATKKPVVNIITPSHVEERGCQLTITFSVPNKDVFQELEKRGVVCDKRNPNGIRVAPVPLYNSFHDVYKFTNLLTSILDSAETKN
